Source: article PMC9973270, “RdmA Is a Key Regulator in Autoinduction of DSF Quorum Quenching in Pseudomonas nitroreducens HS-18” (mBio, 2022)

Test system: T1, RdmA (Pseudomonas nitroreducens HS-18)
T1 sequence (looked up): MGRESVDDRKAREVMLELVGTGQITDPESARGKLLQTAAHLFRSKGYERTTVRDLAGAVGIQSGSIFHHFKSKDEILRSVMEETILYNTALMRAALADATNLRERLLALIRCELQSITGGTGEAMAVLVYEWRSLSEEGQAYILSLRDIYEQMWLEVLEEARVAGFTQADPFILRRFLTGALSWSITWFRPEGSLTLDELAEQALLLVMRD
Test: EMSA
Details: LightShift chemiluminescent EMSA kit (buffer per manufacturer; pH and salt not stated), 10 uL, 2 nM biotin-DNA (20 fmol, 0-4 uM RdmA, recombinant protein, residues 1-211, protein details: N-terminal His6 (pET32a), label: 3'-biotin, probe letters rebuilt from the primers and the genome

GCTTTCTCTCCCCATGGGTCCCATCTGGCCACCTTGCTCAGGGCAATTCATCGAATCGCCCCGCAAGTGCTTGTGTTGTCTGACGAAATGTAAGCCCGCGAGTGCCAACCAAGCAAGCGCTTGGCCATCCAATGGTTGGGGTAGTCATCGACTCGGGGCTTTTCAACCAAGCGCTTGCTTGGTAATGTCGATGCATCACTCAGCGTCACGGGCAGAACA (double strand) [PdmgA F1]
binding result (0.6 mM DSF preincubated with 2 uM RdmA): binds more weakly | binding result (complete shift at 1 uM RdmA): binds

For at least one entry, the source does not settle the construct or the ends of the probe. Weaker means in comparison with the reference protein, sequence or condition of that experiment. Protein sequences can lack the tags named with them.
